PMC11807140
Results are given in words; binding and its absence hold for the method and conditions named. Binding seen in cells or lysates may run through a third protein. Some entries that bind do so weakly or less than the wild type. For part of these data: Where a sequence is shown, tags or fusion partners need not be part of it. Each block holds one molecule with its values, some of them ahead of it.

Protein sequences, listed by entry. Tags and fused reporters are not part of them.
UniProt P49454: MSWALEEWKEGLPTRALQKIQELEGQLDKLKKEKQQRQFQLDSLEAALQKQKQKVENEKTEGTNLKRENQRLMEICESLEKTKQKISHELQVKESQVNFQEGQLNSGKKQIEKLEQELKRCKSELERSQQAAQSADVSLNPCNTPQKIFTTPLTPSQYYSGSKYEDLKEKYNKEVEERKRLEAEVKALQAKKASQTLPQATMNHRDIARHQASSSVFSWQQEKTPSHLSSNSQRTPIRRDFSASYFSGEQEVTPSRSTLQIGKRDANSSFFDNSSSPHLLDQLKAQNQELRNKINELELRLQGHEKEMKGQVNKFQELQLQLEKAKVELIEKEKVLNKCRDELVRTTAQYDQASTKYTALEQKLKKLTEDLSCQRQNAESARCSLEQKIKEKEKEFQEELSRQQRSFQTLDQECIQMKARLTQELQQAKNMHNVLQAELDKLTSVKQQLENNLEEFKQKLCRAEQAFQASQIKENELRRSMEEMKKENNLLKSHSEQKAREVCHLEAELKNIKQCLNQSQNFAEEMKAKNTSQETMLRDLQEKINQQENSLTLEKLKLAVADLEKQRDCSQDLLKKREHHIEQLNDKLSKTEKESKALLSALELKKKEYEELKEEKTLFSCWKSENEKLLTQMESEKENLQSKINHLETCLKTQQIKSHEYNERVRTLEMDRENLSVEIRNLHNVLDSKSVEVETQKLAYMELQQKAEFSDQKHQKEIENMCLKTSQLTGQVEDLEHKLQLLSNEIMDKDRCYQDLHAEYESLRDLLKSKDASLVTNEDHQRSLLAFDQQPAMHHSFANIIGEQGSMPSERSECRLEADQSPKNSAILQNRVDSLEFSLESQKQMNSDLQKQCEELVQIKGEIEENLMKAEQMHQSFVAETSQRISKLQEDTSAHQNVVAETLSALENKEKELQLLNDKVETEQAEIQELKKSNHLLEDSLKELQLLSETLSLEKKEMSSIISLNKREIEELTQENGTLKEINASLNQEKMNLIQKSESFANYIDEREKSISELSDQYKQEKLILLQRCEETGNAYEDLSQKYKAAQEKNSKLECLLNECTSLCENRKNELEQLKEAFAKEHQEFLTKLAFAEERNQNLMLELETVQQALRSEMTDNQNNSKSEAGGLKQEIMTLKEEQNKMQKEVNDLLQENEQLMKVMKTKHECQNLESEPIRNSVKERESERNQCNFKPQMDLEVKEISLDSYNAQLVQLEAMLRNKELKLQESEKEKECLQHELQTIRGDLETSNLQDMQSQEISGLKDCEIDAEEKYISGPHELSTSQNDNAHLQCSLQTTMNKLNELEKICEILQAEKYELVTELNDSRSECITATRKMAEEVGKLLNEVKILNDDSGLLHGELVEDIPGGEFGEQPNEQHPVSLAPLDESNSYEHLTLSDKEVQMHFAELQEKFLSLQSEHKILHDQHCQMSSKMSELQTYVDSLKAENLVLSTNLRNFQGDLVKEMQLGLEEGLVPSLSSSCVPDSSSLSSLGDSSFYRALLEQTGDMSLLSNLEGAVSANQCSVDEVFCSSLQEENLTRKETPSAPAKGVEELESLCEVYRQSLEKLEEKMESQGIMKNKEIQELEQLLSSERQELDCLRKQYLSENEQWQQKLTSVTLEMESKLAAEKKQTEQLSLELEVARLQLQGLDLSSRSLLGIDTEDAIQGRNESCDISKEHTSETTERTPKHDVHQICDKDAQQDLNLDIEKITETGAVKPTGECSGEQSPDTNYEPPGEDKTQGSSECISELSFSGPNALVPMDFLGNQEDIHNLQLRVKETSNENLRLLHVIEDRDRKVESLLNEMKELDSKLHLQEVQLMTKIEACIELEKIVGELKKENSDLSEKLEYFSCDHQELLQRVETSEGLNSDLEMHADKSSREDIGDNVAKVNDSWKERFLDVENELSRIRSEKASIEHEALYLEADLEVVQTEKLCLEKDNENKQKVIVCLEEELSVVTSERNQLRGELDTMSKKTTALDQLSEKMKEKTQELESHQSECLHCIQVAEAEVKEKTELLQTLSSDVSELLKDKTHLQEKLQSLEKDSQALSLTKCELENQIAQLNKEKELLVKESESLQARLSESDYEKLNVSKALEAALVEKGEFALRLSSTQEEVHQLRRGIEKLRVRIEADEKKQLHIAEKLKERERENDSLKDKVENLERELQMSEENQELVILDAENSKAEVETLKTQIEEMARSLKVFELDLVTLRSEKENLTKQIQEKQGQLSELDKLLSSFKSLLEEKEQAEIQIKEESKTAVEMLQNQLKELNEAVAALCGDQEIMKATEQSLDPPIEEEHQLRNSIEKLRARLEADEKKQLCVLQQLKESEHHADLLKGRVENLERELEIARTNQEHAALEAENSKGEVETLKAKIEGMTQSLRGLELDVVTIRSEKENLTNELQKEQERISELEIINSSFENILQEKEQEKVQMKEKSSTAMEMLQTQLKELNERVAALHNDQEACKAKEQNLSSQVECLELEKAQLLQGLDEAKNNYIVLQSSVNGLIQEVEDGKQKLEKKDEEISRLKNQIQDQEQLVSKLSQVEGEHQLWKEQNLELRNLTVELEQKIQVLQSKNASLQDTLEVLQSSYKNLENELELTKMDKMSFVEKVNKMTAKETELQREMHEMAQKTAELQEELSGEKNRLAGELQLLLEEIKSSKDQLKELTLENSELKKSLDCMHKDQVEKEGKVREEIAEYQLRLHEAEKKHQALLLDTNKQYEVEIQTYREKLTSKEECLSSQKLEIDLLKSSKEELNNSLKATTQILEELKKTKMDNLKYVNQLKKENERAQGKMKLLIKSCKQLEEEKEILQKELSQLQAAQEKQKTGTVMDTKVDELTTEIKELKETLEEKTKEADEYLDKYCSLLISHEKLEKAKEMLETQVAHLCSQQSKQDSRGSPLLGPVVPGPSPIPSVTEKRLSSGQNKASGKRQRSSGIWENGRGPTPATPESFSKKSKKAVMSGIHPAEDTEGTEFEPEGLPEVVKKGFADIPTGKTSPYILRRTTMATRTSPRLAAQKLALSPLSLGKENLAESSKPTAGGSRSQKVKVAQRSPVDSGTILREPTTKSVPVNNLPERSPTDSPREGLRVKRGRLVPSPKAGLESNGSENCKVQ

Legend:
[1] = target: T1, USP4 (endogenous) (human (endogenous in HCT116)) (UniProt Q13107); assay: co-IP; endogenous proteins in HCT116 cell lysate; IP with anti-USP4 or anti-CENPF antibody and protein A/G agarose at 4 °C overnight, immunoblot
T1 sequence: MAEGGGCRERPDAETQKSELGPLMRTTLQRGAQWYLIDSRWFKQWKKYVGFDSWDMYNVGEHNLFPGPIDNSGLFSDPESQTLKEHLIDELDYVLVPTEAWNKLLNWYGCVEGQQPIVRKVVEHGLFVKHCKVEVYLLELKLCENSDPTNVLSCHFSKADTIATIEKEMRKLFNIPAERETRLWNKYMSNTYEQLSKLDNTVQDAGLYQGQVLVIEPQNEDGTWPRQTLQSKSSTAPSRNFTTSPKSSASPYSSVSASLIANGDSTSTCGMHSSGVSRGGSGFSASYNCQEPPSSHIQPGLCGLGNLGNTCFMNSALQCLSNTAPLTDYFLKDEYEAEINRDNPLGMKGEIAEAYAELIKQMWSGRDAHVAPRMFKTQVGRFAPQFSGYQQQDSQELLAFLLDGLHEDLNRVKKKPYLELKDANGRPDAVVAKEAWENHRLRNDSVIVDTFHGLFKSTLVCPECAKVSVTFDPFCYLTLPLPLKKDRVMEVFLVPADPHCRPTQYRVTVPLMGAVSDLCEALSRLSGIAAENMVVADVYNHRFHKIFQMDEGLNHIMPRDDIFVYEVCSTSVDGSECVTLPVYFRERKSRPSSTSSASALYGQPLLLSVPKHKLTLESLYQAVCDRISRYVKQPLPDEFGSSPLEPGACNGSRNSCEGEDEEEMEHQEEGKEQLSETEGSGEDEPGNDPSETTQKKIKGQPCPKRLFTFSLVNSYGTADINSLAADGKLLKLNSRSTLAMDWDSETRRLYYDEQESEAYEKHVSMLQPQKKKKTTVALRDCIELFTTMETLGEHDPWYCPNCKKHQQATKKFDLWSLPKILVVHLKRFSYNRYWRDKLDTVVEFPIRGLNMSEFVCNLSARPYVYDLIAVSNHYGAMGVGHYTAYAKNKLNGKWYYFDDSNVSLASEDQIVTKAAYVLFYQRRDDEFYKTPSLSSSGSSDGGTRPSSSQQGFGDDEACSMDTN

USP4-Myc = target: T2, USP4-Myc (UniProt Q13107); assay: co-IP; HCT116 cells co-transfected with CENPF-HA and USP4-Myc or its mutants, 20 µM MG132 for 6 h; IP with anti-Myc, immunoblot
T2 sequence: T1 sequence

[2] = target: CENPF (endogenous) (human (endogenous in HCT116)) (UniProt P49454); assay: co-IP; endogenous proteins in HCT116 cell lysate; IP with anti-USP4 or anti-CENPF antibody and protein A/G agarose at 4 °C overnight, immunoblot

binding [1]: binds
Molecule: CENPF (endogenous) (from UniProt P49454 1-3114)

binding (USP4-Myc): binds
Molecule: CENPF-HA (HA-tagged centromere protein F) (from UniProt P49454 1-3114)

binding [2]: binds
B1: USP4 (endogenous) (enzyme, UniProt Q13107 1-963)
chain: T1 sequence
